# Measured values from PubChem BioAssay AID2685 (National Center for Advancing Translational Sciences (NCATS), 2010).
# The list shows a part of the results. Further columns of the screen follow, without active or inactive calls. Compounds called inactive in the main read-out are mostly missing here. Words in brackets tell the shape of the fitted curve; partial curves, single points and poor fits give uncertain potencies.
# Experiment: qHTS Assay for Lipid Storage Modulators in Drosophila S3 Cells;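 as to cell number change: cells counted by Cell Tracker Red CMTPX staining in the red channel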
# Settings: BODIPY lipid droplet fluorescence, 18-24 h; for cell number change: measured here: cell count max response, cells fed with added oleic acid
# How it was run: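 Drosophila S3 cells loaded with oleic acid (400 uM, as added) and compounds at several concentrations; lipid droplets imaged by 488-nm laser-scanning cytometry, 500–530 nm intensity and object ratio to cell channel. Percent activity normalized to 20 uM Triacsin C.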
# [1] = measured here: lipid fluorescence (Fed channel) AC50, cells fed with added oleic acid
# [2] = measured here: cell number channel AC50, cells fed with added oleic acid
compound,measurement,setting,value
O=S(=O)(NC1CCCCC1)c1ccc(Br)s1,cell number change,,5.04%
same,AC50,[1],"29.1 µM [rising, partial curve, poor fit]"
Fc1cccc(CN2CCN(C(=S)NCCc3ccccc3)CC2)c1,cell number change,,42.9%
same,AC50,[2],"29.1 µM [rising, single point]"
CCOC(=O)c1ccc[n+](CC(=O)Nc2ccccc2OC(F)F)c1,AC50,[1],"29.1 µM [rising, partial curve, poor fit]"
Cc1nnc(SCC(=O)N/N=C/c2ccc(-c3ccc(C)c(Cl)c3)o2)s1,cell number change,,-33.2%
same,AC50,[2],"29.1 µM [falling, single point]"
COC(=O)[C@H](CC(C)C)NC(=O)Nc1ccc2c(c1)OCCO2,cell number change,,-21.7%
same,AC50,[2],"0.13 µM [falling, full curve, poor fit]"
same,AC50,[1],"18.4 µM [falling, partial curve]"
Cc1nc2ccc(S(=O)(=O)Nc3cccc(-c4nc5cccnc5s4)c3C)cc2s1,cell number change,,-34.1%
same,AC50,[2],"20.6 µM [falling, single point]"
same,AC50,[1],"29.1 µM [falling, single point]"
CN(Cc1ccccc1)c1nc(N)nc(Cl)c1C=O,cell number change,,-0.782%
same,AC50,[1],"2.06 µM [falling, partial curve, poor fit]"
CN(Cc1ccccc1)S(=O)(=O)c1ccc(NC(=S)NC(=O)C2CCCCC2)cc1,cell number change,,-16.1%
same,AC50,[1],"25.9 µM [falling, single point]"
COC(=O)c1ccc(CSc2nc3ccccc3c(=O)n2CC(C)C)o1,cell number change,,-43.8%
same,AC50,[1],"0.146 µM [rising, full curve, poor fit]"
CN(c1ccc([N+](=O)[O-])cc1C(=O)Nc1ccccc1)C1CCCCC1,cell number change,,36.8%
O=C(O)Cc1c(C(=O)O)nnn1-c1ccc(Cl)cc1Cl,cell number change,,92.7%
same,AC50,[1],"29.1 µM [rising, single point]"
CC(=O)NCCc1nc2cc(NC(=O)COc3cccc(C)c3)ccc2n1C,AC50,[1],"6.51 µM [falling, single point]"
Cc1ccc(NS(=O)(=O)c2ccc3c(c2)NC(=O)CCS3)cc1C,cell number change,,-7.55%
same,AC50,[1],"6.51 µM [falling, single point]"
CN1CCN(c2nc(-c3cc4ccccc4o3)cs2)CC1,AC50,[1],"3.26 µM [rising, partial curve, poor fit]"
N#CC(C#N)=C1C=CC=CN1/C(=C\c1ccco1)C(=O)c1ccccc1,cell number change,,-39.6%
same,AC50,[2],"7.31 µM [falling, partial curve]"
same,AC50,[1],"5.8 µM [falling, full curve]"
COC(=O)c1sc(=S)n(Cc2ccccc2)c1C,cell number change,,-30.6%
same,AC50,[2],"7.31 µM [falling, partial curve]"
same,AC50,[1],"4.61 µM [falling, full curve]"
CN(c1ccc(C(=O)NCC2CCCO2)cc1)S(C)(=O)=O (stereo unspecified),cell number change,,-82.7%
same,AC50,[2],"32.6 µM [falling, partial curve, poor fit]"
COc1ccc2nc(N3C(=O)CNC3=S)sc2c1,cell number change,,-22.1%
same,AC50,[1],"13 µM [falling, partial curve, poor fit]"
Clc1ccc(NCc2cccnc2)cc1,cell number change,,22.8%
same,AC50,[1],"7.31 µM [rising, partial curve, poor fit]"
O=C(Nc1cccnc1)c1noc2c1CCCC2,cell number change,,-4.2%
same,AC50,[1],"6.51 µM [rising, single point]"
N#C/C(=C\c1ccccn1)c1nc2ccccc2s1,cell number change,,-33.4%
same,AC50,[2],"7.31 µM [falling, partial curve]"
same,AC50,[1],"5.8 µM [falling, full curve]"
O=C(NCSc1ccccc1)c1ccccc1,cell number change,,22.1%
same,AC50,[1],"16.4 µM [rising, partial curve]"
O=C(O)CSCC(=O)Nc1ccc(-c2nc3ccccc3s2)cc1,cell number change,,-12.4%
same,AC50,[2],"0.00731 µM [falling, full curve, poor fit]"
same,AC50,[1],"0.082 µM [falling, full curve, poor fit]"
COc1ccc(NC(=O)C2=Cc3cccc(OC)c3OC2)cc1,cell number change,,18.5%
same,AC50,[1],"3.66 µM [falling, single point]"
CC(C(=O)Nc1ccc(S(N)(=O)=O)cc1)N1CCc2ccccc21 (stereo unspecified),cell number change,,6.01%
Cc1ccsc1/C=N/n1c(COc2ccccc2)n[nH]c1=S,cell number change,,-40.5%
same,AC50,[2],"14.6 µM [falling, single point]"
same,AC50,[1],"16.4 µM [falling, single point]"
CN1c2ccccc2-c2nc3ccccc3n2C1c1ccncc1 (stereo unspecified),cell number change,,15.6%
same,AC50,[1],"0.58 µM [rising, full curve]"
NNC(=O)[C@H]1C[C@@H]1c1ccccc1,cell number change,,-8.56%
same,AC50,[1],"6.51 µM [rising, single point]"
O=C(Nc1ccc(C(=O)N2CCC(N3CCOCC3)CC2)cc1)c1ccc(Br)o1,cell number change,,10.6%
same,AC50,[1],"29.1 µM [rising, single point]"
Cc1ccc(NC(=O)/C(C#N)=C/c2cc(C)n(-c3ccc(N4CCOCC4)c([N+](=O)[O-])c3)c2C)c(C)c1,cell number change,,-10.4%
same,AC50,[1],"4.61 µM [falling, single point]"
CC(=O)Nc1nonc1-c1nc2ccccc2n1CC1CC1,cell number change,,-6.71%
same,AC50,[1],"2.06 µM [rising, full curve]"
O=C(COc1cccc(Br)c1)N/N=C1\CCCc2ccccc21,cell number change,,25%
same,AC50,[2],"0.231 µM [rising, full curve, poor fit]"
same,AC50,[1],"20.6 µM [rising, partial curve]"
Cc1c(C(=O)N2CCN(Cc3ccc4c(c3)OCO4)CC2)cccc1[N+](=O)[O-],cell number change,,-13.2%
same,AC50,[2],"6.51 µM [rising, single point]"
O=C(NCc1ccncc1)C(=O)Nc1nc(C23CC4CC(CC(C4)C2)C3)cs1,cell number change,,34.6%
same,AC50,[2],"3.26 µM [rising, partial curve]"
same,AC50,[1],"0.366 µM [rising, full curve]"
O=C(COC(=O)CNC(=O)c1ccc(Cl)cc1)NC1CCCCCC1,cell number change,,-11.7%
same,AC50,[2],"0.00517 µM [falling, full curve, poor fit]"
same,AC50,[1],"0.00461 µM [falling, full curve, poor fit]"
CCOc1cc(C2Nc3ccccc3NC3=C2C(=O)CC(C)(C)C3)ccc1O (stereo unspecified),cell number change,,-1.31%
same,AC50,[1],"6.51 µM [falling, single point]"
COC(CNC(=O)c1ccc2nc(-c3cccs3)c(-c3cccs3)nc2c1)OC,cell number change,,20.4%
same,AC50,[1],"13 µM [rising, partial curve, poor fit]"
Cc1cccc(NS(=O)(=O)c2ccc(-c3ccc(=O)[nH]n3)o2)c1,cell number change,,18.3%
same,AC50,[1],"6.51 µM [falling, single point]"
CC(=O)C1=C(C)N(CC2CC2)C(=O)N[C@H]1c1cccs1,cell number change,,0.675%
same,AC50,[1],"29.1 µM [falling, single point]"
O=C1CC(N2CCN(c3ccc(O)cc3)CC2)C(=O)N1Cc1cccs1 (stereo unspecified),cell number change,,17%
CCOC(=O)c1c(C)nc2sc(C(=O)Nc3ccccc3)c(N)c2c1-c1ccc(OC)cc1,cell number change,,-13.8%
same,AC50,[1],"20.6 µM [rising, single point]"
CCCn1c(NC(=O)C2CCN(C(=O)c3ccccc3C)CC2)nc2ccccc21,cell number change,,1.02%
same,AC50,[1],"29.1 µM [falling, single point]"
CCC(O)C(C)(C)C (stereo unspecified),cell number change,,27.6%
same,AC50,[1],"1.64 µM [rising, partial curve, poor fit]"
COc1cccc(N=c2oc3ccccc3cc2-c2nc3ccccc3[nH]2)c1,cell number change,,-61.7%
same,AC50,[2],"23.1 µM [falling, partial curve]"
same,AC50,[1],"18.4 µM [falling, partial curve]"
Cc1cc(NC(=O)CSc2nnc(-c3ccncc3)n2C)n(-c2ccccc2)n1,cell number change,,-4.13%
same,AC50,[2],"0.92 µM [falling, full curve, poor fit]"
same,AC50,[1],"0.00651 µM [falling, full curve, poor fit]"
Cc1cc(-n2ccnc2)n2c(nc3ccccc32)c1C#N,AC50,[2],"1.16 µM [rising, partial curve]"
same,AC50,[1],"0.461 µM [rising, partial curve, poor fit]"
CCOc1ccc(NCc2ccccc2OCc2cccc(F)c2)cc1,cell number change,,-15.9%
same,AC50,[1],"20.6 µM [falling, single point]"
COc1ccc(-n2c(COc3ccc(C)cc3)nnc2SCc2ccc(C#N)cc2)cc1,cell number change,,10.1%
same,AC50,[1],"0.164 µM [rising, full curve]"
Cc1c(Cl)cc(-n2cnnn2)cc1[N+](=O)[O-],cell number change,,-8.3%
same,AC50,[2],"0.82 µM [falling, single point]"
N#Cc1c(NC(=S)NC(=O)c2ccccc2)sc2c1CCN(CCc1ccccc1)C2,cell number change,,7.2%
same,AC50,[1],"29.1 µM [falling, single point]"
CC(=O)Nc1ccc(C2=NN(Cc3nnc(-c4ccccc4)o3)C(=O)SC2)cc1,cell number change,,30.1%
same,AC50,[2],"29.1 µM [rising, single point]"
same,AC50,[1],"0.411 µM [rising, full curve, poor fit]"
CCCN1CCC(NC23CC4CC(CC(C4)C2)C3)CC1,cell number change,,24.3%
same,AC50,[1],"20.6 µM [rising, single point]"
CSc1nc2ncc3c(n2n1)CC1c2ccccc2CCN1C3=O (stereo unspecified),cell number change,,104%
same,AC50,[2],"13 µM [rising, partial curve]"
same,AC50,[1],"14.6 µM [rising, partial curve]"
O=C(CN1CCN(c2ccc(O)cc2)CC1)Nc1ccc(SC(F)F)cc1,cell number change,,-11.7%
same,AC50,[1],"29.1 µM [falling, single point]"
CC1(C)Nc2ccccc2C(=O)N1c1ccccc1,cell number change,,19%
O=C(COc1ccc(Nc2ccccc2)cc1)Nc1ccncc1,AC50,[1],"0.58 µM [falling, single point]"
CC(C)Oc1ccc(C(CC(=O)N(C)CCC#N)c2ccc(F)cc2)cc1 (stereo unspecified),cell number change,,-33.3%
same,AC50,[2],"0.58 µM [falling, full curve]"
same,AC50,[1],"1.3 µM [rising, full curve]"

# Some of the entries above in another layout:
compound | measurement | setting | value
CCCN1CCC(NC23CC4CC(CC(C4)C2)C3)CC1 | cell number change |  | 24.3%
same | AC50 | [1] | 20.6 µM [rising, single point]
CSc1nc2ncc3c(n2n1)CC1c2ccccc2CCN1C3=O (stereo unspecified) | cell number change |  | 104%
same | AC50 | [2] | 13 µM [rising, partial curve]
same | AC50 | [1] | 14.6 µM [rising, partial curve]
O=C(CN1CCN(c2ccc(O)cc2)CC1)Nc1ccc(SC(F)F)cc1 | cell number change |  | -11.7%
